One substance from publication PMC5749897 can be followed below.

Protein sequences, listed by entry. Tags and fused reporters are not part of them. Residues count along the entry.
UniProt P27958, residues 384-746: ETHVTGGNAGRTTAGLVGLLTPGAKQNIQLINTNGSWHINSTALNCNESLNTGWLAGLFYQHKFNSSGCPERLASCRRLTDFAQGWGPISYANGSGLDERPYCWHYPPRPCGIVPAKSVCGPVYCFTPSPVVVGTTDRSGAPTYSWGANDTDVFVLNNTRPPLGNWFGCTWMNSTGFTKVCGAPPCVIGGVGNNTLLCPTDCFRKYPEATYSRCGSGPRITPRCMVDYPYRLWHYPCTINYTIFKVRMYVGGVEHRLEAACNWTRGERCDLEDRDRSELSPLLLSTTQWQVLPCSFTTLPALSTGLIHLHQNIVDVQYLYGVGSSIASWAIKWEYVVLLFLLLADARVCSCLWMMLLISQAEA

The target in this assay is E2 on purified HCV pseudoparticles (HCVpp) (hepatitis C virus genotype 1a, strain H77) (UniProt P27958). The assay can be described thus: non-reducing and reducing SDS-PAGE with immunoblot. On the technique in general: In western blotting, separated proteins are transferred to a membrane and probed.

These are yes or no findings as the source states them, for the method shown. Some results given as binding are weak or reduced against the parent protein; the word gives no strength.

As to “E2 on purified HCV pseudoparticles (HCVpp) (from UniProt P27958 384-746)”, the binding result is “binds”.
